# This is one part of the list.
# Protein sequences, listed by entry. Tags and fused reporters are not part of them. Lines headed by an entry give the natural chain unless they say otherwise; changes in a name come on top.
# UniProt O94761: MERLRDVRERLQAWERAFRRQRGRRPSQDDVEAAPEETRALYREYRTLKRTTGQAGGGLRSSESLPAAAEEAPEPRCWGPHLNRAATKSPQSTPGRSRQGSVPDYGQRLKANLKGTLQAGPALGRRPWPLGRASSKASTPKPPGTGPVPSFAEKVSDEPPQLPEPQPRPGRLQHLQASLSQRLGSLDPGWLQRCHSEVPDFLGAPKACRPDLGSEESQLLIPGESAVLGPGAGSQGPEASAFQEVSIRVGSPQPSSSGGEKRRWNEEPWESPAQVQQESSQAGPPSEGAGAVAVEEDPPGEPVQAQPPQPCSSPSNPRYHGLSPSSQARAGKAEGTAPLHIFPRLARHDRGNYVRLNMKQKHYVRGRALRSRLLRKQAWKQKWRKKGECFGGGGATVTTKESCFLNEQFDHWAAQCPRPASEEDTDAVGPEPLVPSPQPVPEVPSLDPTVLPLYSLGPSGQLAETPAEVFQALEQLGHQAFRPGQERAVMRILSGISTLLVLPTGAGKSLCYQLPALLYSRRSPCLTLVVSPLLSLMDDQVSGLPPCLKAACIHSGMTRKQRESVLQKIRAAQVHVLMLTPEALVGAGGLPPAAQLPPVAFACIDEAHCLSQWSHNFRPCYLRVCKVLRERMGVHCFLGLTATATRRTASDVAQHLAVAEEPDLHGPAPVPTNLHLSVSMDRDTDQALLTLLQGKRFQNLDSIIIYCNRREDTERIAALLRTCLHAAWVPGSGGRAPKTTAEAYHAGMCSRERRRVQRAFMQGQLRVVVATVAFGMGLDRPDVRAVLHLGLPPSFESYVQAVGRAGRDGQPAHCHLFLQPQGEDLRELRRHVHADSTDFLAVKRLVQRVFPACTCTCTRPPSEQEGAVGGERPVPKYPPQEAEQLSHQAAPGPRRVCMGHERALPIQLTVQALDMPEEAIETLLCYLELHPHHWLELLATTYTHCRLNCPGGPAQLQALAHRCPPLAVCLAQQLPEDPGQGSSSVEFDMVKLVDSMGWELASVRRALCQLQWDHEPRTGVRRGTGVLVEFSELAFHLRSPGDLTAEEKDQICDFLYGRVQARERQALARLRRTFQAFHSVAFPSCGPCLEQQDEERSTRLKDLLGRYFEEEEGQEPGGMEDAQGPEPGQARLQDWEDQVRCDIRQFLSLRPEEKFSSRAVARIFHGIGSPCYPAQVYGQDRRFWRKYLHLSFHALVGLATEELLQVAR
# UniProt P46063: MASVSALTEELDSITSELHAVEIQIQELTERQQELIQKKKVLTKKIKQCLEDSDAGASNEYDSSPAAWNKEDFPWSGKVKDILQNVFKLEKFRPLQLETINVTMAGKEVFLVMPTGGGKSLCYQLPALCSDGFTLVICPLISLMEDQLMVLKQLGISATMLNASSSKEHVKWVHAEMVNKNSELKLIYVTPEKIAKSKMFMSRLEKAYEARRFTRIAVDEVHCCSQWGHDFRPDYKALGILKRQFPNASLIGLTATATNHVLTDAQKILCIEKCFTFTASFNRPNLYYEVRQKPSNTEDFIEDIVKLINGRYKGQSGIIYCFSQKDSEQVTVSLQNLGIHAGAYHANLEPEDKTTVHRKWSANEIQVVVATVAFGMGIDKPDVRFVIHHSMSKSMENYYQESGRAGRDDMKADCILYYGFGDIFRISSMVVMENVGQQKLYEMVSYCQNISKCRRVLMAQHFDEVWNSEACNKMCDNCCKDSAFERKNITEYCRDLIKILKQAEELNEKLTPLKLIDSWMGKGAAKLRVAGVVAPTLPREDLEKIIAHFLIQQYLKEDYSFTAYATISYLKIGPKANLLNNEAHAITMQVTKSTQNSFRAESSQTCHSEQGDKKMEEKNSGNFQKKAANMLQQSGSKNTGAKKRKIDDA
# UniProt Q13129: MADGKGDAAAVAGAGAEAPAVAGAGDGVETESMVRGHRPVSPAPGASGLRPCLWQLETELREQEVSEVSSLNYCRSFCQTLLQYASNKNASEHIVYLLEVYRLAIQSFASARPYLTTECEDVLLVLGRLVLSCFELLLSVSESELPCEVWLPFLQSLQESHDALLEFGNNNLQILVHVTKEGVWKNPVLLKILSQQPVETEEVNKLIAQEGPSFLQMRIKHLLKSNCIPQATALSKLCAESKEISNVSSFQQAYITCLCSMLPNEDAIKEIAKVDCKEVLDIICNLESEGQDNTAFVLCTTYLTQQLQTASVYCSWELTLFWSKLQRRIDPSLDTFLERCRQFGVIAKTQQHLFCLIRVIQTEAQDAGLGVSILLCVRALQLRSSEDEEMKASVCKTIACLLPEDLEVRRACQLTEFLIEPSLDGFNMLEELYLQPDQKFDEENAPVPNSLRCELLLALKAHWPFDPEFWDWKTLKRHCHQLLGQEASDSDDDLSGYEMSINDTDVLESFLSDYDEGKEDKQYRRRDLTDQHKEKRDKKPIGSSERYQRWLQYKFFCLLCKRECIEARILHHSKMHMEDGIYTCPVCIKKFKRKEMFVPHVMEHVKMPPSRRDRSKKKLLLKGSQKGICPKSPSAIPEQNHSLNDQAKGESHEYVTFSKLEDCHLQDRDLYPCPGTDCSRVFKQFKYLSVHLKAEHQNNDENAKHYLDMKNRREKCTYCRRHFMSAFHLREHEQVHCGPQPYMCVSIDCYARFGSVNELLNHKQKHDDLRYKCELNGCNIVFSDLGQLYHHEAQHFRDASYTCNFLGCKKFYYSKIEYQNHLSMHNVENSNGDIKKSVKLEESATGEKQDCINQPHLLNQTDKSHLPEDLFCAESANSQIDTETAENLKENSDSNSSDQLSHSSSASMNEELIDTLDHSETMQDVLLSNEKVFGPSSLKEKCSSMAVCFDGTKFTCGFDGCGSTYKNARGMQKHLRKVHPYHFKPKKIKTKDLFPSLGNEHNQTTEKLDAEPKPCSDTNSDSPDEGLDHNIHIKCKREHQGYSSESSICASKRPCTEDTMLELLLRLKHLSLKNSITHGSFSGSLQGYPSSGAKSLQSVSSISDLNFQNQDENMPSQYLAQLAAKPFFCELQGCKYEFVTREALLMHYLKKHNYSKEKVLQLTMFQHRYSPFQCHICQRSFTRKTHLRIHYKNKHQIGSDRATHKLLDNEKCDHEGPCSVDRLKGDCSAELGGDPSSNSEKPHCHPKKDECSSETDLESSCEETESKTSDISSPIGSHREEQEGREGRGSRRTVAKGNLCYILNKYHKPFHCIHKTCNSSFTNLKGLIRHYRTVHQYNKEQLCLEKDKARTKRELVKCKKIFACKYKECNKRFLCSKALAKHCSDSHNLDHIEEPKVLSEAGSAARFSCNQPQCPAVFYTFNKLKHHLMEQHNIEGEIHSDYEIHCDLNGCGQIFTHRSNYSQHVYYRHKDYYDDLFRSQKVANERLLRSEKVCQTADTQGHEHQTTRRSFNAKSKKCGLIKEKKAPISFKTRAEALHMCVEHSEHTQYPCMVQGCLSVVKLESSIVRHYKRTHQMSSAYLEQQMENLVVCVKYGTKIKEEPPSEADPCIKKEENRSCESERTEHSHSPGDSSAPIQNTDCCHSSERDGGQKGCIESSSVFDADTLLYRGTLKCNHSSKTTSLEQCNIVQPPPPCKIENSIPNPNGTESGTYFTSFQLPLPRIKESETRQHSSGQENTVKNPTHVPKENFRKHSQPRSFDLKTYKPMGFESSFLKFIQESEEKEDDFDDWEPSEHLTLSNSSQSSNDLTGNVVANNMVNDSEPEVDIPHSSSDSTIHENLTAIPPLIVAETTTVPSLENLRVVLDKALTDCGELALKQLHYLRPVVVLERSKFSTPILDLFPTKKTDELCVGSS
# UniProt Q06587: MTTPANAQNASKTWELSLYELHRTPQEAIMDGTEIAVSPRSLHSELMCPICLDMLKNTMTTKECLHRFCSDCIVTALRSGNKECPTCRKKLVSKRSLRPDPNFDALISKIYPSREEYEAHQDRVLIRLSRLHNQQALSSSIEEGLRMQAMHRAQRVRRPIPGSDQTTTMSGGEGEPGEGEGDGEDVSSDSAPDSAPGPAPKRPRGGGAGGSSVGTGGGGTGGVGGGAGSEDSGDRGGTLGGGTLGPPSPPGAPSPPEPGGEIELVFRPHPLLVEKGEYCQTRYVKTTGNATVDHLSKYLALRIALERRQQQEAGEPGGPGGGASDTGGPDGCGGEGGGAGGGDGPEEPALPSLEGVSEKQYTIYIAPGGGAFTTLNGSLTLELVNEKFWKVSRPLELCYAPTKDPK
# UniProt P12724: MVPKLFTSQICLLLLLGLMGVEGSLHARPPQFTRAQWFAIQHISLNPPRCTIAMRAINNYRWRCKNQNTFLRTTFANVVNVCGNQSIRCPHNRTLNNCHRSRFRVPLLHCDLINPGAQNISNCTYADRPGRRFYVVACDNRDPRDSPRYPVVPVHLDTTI
# UniProt Q9Y508: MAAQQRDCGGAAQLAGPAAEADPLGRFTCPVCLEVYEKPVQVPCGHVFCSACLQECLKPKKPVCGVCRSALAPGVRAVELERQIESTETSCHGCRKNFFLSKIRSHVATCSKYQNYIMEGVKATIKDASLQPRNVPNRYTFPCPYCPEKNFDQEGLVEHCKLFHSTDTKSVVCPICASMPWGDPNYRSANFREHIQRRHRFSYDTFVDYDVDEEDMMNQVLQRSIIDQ
# UniProt Q6R327, whole entry, looked up: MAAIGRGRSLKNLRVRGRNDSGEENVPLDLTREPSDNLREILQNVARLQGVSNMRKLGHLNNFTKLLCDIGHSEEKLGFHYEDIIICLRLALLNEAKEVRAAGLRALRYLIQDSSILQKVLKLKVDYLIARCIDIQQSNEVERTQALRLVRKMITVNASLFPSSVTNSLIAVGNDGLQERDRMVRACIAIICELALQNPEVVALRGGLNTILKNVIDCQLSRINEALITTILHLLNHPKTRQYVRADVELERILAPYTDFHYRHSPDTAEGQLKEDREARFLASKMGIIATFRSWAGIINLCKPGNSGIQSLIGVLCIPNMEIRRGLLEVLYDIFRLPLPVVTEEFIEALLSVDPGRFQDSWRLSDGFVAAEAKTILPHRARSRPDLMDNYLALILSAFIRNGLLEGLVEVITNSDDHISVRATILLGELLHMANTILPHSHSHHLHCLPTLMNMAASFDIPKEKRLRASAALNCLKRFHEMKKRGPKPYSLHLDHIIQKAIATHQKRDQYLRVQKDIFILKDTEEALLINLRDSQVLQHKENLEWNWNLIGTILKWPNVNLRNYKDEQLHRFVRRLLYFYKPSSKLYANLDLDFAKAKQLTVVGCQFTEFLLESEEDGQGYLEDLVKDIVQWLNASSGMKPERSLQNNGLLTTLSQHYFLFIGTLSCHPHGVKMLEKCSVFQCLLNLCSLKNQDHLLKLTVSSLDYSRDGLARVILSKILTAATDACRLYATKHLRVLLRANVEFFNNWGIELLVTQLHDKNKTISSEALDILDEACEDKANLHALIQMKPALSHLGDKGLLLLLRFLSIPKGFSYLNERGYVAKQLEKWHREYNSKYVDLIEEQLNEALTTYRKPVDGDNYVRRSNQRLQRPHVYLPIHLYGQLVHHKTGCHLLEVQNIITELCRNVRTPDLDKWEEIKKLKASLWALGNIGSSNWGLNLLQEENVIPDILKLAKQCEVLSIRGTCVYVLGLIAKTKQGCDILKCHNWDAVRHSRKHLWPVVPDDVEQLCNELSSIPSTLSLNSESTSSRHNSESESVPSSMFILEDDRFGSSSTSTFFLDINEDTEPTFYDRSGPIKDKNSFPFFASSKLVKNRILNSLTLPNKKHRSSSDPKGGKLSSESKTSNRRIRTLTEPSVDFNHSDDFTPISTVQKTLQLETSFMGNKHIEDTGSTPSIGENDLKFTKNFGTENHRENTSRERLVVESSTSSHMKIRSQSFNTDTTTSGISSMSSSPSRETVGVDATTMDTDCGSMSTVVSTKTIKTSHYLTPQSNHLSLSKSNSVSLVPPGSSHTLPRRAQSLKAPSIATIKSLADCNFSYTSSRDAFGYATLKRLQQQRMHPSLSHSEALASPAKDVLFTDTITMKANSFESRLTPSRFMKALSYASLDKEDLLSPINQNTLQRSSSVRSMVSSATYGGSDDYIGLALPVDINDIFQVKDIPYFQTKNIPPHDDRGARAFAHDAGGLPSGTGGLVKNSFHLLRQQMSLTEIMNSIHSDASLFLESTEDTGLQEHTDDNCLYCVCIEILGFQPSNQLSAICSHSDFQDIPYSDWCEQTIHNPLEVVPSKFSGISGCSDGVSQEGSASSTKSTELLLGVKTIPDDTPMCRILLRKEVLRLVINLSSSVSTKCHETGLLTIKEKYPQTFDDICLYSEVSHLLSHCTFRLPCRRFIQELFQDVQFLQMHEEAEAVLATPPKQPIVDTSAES
# UniProt Q9H920: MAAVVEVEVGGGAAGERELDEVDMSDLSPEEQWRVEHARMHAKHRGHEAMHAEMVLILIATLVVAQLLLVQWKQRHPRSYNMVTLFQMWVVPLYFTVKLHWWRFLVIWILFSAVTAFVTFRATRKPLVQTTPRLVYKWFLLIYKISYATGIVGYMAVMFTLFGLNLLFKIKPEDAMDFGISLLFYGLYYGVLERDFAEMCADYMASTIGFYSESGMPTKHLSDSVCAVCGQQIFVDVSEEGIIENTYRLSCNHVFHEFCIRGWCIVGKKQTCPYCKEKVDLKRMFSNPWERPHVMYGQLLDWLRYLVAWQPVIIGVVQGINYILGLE
# Compound: CC1Cc2ccccc2N1C(=O)C1CCCN(C1)C(=O)CCl (mixture of isomers) [TRIM25 ligand 11 (diastereomer mixture)]
# Assay: probe-labelled cysteine peptide fold change vs DMSO (competition) (log2 fold change); higher = less target engagement (more negative = stronger competition)
# Conditions: THP-1, incubation time: 4 h
# 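Also: competitive chemoproteomic profiling in live THP-1 cells with an iodoacetamide desthiobiotin (IA-DTB) probe, comparing probe-labelled peptide intensities in compound-treated cells against DMSO-treated controls.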
Target,probe-labelled cysteine peptide fold change (10 µM),probe-labelled cysteine peptide fold change (50 µM)
RECK_O95980_902_ALQIEACNK (UniProt O95980),0.173,-0.0638
RIC8A_Q9NPQ8_120_CLCNLVLSSPVAQMLAAEAR (UniProt Q9NPQ8),-0.125,-0.0602
RDH10_Q8IZV5_170_TMMVNCHAHFWTTK (UniProt Q8IZV5),-0.157,0.0319
RECQL4_O94761_1008_ALCQLQWDHEPR (UniProt O94761),-0.0223,0.0441
RMND1_Q9NWS8_409_LQHCMELTDLMR (UniProt Q9NWS8),-0.043,0.0413
RHBDF2_Q6PJF5_181_DLELPSQEAPSFQGTESPKPCK (UniProt Q6PJF5),-0.164,-0.26
RECQL_P46063_606_AESSQTCHSEQGDK (UniProt P46063),0.0906,-0.0193
RECQL_P46063_321_YKGQSGIIYCFSQK (UniProt P46063),-0.364,-0.27
RLF_Q13129_961_FTCGFDGCGSTYK (UniProt Q13129),-0.159,-0.314
RLF_Q13129_400_TIACLLPEDLEVR (UniProt Q13129),0.279,0.0499
RING1_Q06587_72_FCSDCIVTALR (UniProt Q06587),0.349,0.315
RNASET2_O00584_55_IQNDCRDPPDYWTIHGLWPDK (UniProt O00584),-0.126,-0.235
RNASE3_P12724_138_FYVVACDNRDPR (UniProt P12724),-0.164,-0.135
RILPL2_Q969X0_161_SQLLVVQEELQCYK (UniProt Q969X0),-0.0621,-0.111
RNF114_Q9Y508_32_FTCPVCLEVYEK (UniProt Q9Y508),-0.000616,-0.075
RNF114_Q9Y508_56_PVQVPCGHVFCSACLQECLKPK (UniProt Q9Y508),-0.12,-0.0834
RIPK3_Q9Y572_365_KCPSLTK (UniProt Q9Y572),0.0674,-0.0663
RLF_Q13129_355_TQQHLFCLIR (UniProt Q13129),-0.0725,0.316
RFFL_Q8WZ73_123_DYLSLHDISTEMCR (UniProt Q8WZ73),0.169,0.211
RIOK2_Q9BVS4_197_HAVVMELINGYPLCQIHHVEDPASVYDEAMELIVK (UniProt Q9BVS4),0.223,0.107

Target,probe-labelled cysteine peptide fold change (10 µM),probe-labelled cysteine peptide fold change (50 µM)
RFTN1_Q14699_211_PGTGDVCSAPAGR (UniProt Q14699),-0.0231,-0.0419
RICTOR_Q6R327_893+906_TGCHLLEVQNIITELCR (UniProt Q6R327),-0.0205,-0.296
REXO2_Q9Y3B8_137_QQTPPGLCPLAGNSVHEDK (UniProt Q9Y3B8),0.167,-0.0434
RFC1_P35251_822_QVLHNLSMWCAR (UniProt P35251),0.0478,0.259
RICTOR_Q6R327_778_TISSEALDILDEACEDK (UniProt Q6R327),0.0267,0.192
RGS14_O43566-5_207_ALVLDQDCTVLADQEVR (UniProt O43566),0.166,0.385
RLF_Q13129_227_SNCIPQATALSK (UniProt Q13129),-0.128,-0.167
RELCH_Q9P260_401_NEHFAIPAVCDSVQPPLDQLPHK (UniProt Q9P260),0.0128,-0.227
RING1_Q06587_48+51_SLHSELMCPICLDMLK (UniProt Q06587),0.0435,-0.248
RLF_Q13129_948_CSSMAVCFDGTK (UniProt Q13129),-0.158,-0.331
REPIN1_Q9BWE0_520_IHTGERPYACPDCDR (UniProt Q9BWE0),0.00925,0.0513
RGP1_Q92546_293_HQESCLHTTR (UniProt Q92546),0.00599,-0.0637
REL_Q04864_143_QLNDIEDCDLNVVR (UniProt Q04864),-0.0385,0.0105
RNF121_Q9H920_251_LSCNHVFHEFCIR (UniProt Q9H920),0.541,0.512
RENBP_P51606_400_CLAMCEEMLGALLSR (UniProt P51606),0.209,0.34
REST_Q13127_945_HQTDSIVCEMK (UniProt Q13127),-0.0339,-0.334
RNF113A_O15541_285_HYFCESCALQHFR (UniProt O15541),0.00474,-0.0166
RGS10_O43665_66_EFSEENVLFWLACEDFKK (UniProt O43665),-0.0879,-0.0221
RINL_Q6ZS11_350_KDEDPGPALETAVCQAVLAPLKPALWTR (UniProt Q6ZS11),0.044,-0.397
